# The other results are listed elsewhere or left out. Residues, ends and D or L forms follow the SMILES beside them. *: point of attachment. Cbz = O=C(OCc1ccccc1)*
# Chains of the proteins cited; added tags and fusions are not shown. Lines headed by an entry give the natural chain unless they say otherwise; changes in a name come on top.
# UniProt P54578: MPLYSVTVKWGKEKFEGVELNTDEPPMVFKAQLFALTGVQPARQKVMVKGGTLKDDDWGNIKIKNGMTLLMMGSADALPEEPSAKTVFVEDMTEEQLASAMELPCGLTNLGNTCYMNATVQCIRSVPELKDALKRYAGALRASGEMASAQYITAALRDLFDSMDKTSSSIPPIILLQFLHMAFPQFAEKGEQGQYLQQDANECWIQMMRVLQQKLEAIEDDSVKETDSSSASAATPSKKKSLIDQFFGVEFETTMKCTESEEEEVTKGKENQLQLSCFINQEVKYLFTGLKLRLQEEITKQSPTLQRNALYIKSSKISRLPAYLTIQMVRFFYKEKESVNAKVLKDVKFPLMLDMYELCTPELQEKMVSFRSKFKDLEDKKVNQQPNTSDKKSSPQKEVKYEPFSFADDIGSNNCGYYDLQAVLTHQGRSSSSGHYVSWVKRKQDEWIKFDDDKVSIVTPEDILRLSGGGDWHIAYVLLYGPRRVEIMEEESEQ
# UniProt Q9UPT9: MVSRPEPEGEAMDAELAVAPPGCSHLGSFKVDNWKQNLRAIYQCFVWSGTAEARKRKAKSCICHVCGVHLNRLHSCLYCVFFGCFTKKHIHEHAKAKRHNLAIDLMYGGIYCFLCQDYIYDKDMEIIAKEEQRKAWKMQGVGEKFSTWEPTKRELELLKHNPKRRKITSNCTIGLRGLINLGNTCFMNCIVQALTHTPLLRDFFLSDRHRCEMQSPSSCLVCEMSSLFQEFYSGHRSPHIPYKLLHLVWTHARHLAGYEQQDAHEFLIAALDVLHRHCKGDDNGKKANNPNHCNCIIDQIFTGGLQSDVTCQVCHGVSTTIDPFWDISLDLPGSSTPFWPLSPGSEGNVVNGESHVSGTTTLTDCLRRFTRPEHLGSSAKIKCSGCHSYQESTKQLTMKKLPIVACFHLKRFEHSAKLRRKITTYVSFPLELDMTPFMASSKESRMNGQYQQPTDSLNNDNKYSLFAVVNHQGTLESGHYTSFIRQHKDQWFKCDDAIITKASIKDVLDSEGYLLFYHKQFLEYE
# UniProt Q92995: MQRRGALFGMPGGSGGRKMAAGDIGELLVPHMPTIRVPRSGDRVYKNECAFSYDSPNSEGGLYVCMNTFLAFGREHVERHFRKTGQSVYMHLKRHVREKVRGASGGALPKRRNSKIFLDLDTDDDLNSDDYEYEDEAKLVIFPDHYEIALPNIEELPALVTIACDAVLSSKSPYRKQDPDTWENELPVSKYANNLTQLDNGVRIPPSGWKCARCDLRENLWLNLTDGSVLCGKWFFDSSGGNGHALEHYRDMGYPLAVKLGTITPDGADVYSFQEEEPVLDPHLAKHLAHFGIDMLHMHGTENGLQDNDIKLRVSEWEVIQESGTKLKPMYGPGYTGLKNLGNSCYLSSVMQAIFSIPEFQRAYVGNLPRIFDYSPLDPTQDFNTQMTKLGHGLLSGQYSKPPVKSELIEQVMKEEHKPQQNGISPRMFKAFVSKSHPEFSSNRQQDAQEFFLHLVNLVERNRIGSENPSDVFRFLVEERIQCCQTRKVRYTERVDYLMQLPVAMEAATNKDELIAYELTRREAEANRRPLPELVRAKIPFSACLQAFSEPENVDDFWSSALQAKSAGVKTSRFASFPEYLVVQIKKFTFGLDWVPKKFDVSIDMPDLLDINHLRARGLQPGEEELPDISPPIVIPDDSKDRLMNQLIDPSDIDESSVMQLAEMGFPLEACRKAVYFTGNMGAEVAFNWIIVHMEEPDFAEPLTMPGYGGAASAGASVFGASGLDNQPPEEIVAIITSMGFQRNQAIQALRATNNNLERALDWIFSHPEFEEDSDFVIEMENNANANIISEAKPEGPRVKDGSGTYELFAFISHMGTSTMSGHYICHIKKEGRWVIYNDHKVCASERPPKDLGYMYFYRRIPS
# UniProt Q6BDS2: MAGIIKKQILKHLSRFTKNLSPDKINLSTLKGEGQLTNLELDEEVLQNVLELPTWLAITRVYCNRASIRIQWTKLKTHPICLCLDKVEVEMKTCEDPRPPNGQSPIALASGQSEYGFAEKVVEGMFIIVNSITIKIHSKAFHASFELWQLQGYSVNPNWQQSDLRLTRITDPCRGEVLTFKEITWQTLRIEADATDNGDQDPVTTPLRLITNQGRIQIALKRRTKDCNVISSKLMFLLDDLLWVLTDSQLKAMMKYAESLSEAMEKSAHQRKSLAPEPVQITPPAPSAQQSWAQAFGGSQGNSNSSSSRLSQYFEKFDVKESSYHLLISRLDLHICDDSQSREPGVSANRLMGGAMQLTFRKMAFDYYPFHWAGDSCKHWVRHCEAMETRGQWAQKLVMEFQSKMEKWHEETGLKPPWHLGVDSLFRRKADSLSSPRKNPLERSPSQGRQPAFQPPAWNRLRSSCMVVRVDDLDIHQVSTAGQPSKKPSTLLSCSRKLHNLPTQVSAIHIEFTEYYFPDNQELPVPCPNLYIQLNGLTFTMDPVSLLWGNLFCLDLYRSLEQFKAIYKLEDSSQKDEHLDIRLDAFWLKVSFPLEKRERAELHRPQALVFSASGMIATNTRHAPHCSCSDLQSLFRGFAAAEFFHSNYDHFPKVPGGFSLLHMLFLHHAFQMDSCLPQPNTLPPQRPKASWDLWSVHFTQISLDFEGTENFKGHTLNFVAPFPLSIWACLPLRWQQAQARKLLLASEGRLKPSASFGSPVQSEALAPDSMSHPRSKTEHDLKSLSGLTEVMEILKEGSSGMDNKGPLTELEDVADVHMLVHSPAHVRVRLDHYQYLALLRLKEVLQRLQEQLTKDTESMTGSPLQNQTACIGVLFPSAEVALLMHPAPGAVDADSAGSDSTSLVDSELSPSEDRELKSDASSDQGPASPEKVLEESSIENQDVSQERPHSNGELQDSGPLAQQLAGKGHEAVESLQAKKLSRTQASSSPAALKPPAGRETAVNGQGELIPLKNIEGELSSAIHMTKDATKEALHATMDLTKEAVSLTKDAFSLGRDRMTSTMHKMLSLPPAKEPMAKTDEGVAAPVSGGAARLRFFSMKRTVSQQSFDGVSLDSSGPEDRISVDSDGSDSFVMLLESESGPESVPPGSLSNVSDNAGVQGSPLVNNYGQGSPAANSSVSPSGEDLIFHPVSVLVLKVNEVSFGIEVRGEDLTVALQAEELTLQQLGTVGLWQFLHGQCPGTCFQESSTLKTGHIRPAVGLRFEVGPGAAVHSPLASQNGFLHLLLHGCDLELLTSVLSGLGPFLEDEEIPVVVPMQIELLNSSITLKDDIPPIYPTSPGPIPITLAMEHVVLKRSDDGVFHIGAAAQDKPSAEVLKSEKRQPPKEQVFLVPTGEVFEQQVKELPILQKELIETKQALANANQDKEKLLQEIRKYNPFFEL
# UniProt Q9Y5K5, whole entry, looked up: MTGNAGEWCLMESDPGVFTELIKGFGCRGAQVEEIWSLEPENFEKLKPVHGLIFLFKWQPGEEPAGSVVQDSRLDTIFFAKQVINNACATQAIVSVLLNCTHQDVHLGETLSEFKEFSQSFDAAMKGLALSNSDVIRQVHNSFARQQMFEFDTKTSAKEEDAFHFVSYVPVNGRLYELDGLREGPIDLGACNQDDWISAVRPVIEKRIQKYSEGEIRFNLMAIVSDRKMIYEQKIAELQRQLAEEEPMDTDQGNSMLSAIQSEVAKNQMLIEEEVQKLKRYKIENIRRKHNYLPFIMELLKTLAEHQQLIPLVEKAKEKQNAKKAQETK
# UniProt P22415: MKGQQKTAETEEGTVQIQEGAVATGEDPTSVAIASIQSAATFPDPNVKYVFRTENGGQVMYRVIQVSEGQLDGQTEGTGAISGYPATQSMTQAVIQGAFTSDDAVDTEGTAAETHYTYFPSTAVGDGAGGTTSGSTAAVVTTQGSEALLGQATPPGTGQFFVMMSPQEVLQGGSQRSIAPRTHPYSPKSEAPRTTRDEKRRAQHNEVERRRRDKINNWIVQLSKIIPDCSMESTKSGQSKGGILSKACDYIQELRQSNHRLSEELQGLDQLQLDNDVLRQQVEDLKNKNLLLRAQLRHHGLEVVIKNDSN
# UniProt Q16739: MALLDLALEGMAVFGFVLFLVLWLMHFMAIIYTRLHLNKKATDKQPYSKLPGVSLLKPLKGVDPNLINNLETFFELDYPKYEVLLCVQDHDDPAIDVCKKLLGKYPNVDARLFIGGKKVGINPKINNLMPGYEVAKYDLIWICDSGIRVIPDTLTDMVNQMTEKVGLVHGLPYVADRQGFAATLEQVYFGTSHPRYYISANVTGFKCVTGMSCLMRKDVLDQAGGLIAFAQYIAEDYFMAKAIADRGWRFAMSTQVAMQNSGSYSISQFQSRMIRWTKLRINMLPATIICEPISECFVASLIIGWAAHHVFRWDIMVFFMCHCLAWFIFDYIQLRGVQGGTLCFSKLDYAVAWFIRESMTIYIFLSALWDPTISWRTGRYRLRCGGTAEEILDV
# UniProt Q92890: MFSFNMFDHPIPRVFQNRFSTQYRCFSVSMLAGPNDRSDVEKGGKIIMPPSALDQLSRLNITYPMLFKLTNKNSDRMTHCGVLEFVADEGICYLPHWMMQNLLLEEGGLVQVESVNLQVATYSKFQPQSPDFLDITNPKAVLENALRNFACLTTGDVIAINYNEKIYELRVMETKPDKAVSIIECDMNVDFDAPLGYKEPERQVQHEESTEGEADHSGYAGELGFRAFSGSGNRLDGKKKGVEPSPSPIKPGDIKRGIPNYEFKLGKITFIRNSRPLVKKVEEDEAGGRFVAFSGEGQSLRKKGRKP
# UniProt P17480: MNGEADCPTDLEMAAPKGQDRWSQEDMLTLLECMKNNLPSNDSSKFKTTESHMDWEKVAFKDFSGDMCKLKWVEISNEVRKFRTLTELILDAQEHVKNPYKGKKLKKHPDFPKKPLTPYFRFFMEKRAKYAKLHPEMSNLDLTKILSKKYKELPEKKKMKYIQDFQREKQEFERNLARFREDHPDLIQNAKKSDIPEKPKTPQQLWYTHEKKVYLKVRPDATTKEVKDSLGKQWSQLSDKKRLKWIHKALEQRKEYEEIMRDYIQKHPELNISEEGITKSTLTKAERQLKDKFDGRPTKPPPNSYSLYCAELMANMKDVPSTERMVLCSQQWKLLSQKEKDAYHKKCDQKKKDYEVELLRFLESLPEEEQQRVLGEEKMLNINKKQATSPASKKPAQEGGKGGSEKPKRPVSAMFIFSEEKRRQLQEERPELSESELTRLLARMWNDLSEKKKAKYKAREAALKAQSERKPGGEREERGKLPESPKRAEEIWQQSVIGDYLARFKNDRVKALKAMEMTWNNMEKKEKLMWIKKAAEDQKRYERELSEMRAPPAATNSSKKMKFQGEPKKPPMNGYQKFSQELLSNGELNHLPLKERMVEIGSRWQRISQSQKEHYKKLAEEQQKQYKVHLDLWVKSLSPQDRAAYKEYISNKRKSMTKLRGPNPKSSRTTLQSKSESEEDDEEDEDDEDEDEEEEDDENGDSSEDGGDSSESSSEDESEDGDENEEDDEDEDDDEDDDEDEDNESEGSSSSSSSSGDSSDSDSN
# How the values were obtained:
# Assay in all cases: log2 fold change, soluble protein after heating vs DMSO (PISA); higher = thermal stabilisation; K562 cells, 10 uM, 30 min; active = over 0.2 and 3.5 SD of the protein, either way, in both replicates (recomputed)
# [1] = compound: C#Cc1cccc(Nc2ncnc3cc(OCCOC)c(OCCOC)cc23)c1 [erlotinib]
# Method in brief: (§1)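 For each measurement, 10 μM compound was applied for 30 min to K562 cells at 2×10^6 cells/mL. Aliquots were heated for 3 min across 48°C-58°C, pooled, and extracted in PBS with 0.5% NP-40 at 4°C; the supernatant after 21,000xg for 90 min was soluble protein. This was quantified by TMTpro 16plex LC-MS/MS with channel sums equalised, and thermal stability was reported relative to control samples from duplicates, on a log2 fold-change scale.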
# [2] = compound: C/C(=N\NC(=O)C1=CC(=CC=C1)S(=O)(=O)N2CCOCC2)/C3=C(C=CC(=C3)Cl)O
# Method in brief: as §1
# [3] = compound: C1=CC(=C(C=C1Cl)C2=NC3=NC=CN=C3C(=N2)NC4=CC=NC=C4)F
# Method in brief: as §1
# [4] = compound: C1=CC(=CC=C1C2=NC3=C(N2)C=C(C=C3)C(=O)N)OC4=CC=C(C=C4)Cl
# Method in brief: as §1
# [5] = compound: C1=CC2=C(C=CC(=C2)/C=C\3/C(=O)NC(=NCC4=CC=CS4)S3)N=C1
# Method in brief: as §1
# [6] = compound: C1=CC2=NC=CN=C2C=C1/C=C/3\C(=O)NC(=O)S3
# Method in brief: as §1
# [7] = compound: C1=CC=C(C=C1)C2=NC(=C(N2)C3=CC=NC=C3)C4=CC(=C(C=C4)Cl)O
# Method in brief: as §1
# [8] = compound: C1=CC=C2C(=C1)C3=NNC4=CC=CC(=C43)C2=O
# Method in brief: as §1
# [9] = compound: C1CCN(C1)C(=O)NC2=CC=CC(=C2)NC3=NC=C(C(=N3)NCCC4=CN=CN4)Br
# Method in brief: as §1
# [10] = compound: C1CN(CCC1(CC2=CC=C(C=C2)Cl)N)C3=NC=NC4=C3C=CN4
# Method in brief: as §1
# [11] = compound: C1COCCN1CCN2C3=CC=CC=C3N=C2NC(=O)C4=CC(=CC=C4)[N+](=O)[O-] [IRAK-1-4 Inhibitor I]
# Method in brief: as §1
# [12] = compound: C=CC(=O)N1CCC[C@@H](n2nc(-c3ccc(Oc4ccccc4)cc3)c3c(N)ncnc32)C1 [ibrutinib]
# Method in brief: as §1
# [13] = compound: CC(=O)c1cnc2ccc(-c3cc(Cl)c(O)c(Cl)c3)nc2c1N[C@H]1CC[C@H](CN(C)C)CC1
# Method in brief: as §1
# [14] = compound: CC(C)(C)Cn1c(N)nc2ccc(-c3[nH]c(C(C)(C)C)nc3-c3ccc(F)cc3)nc21 [ralimetinib]
# Method in brief: as §1
# [15] = compound: CC(C)(O)CC(=O)NCCn1ccc2ncnc(Nc3ccc(Oc4cccc(C(F)(F)F)c4)c(Cl)c3)c21
# Method in brief: as §1
# [16] = compound: CC(C)C1=C2N=C(C=C(N2N=C1)NCC3=CC=CC=C3)NCCCCCCN
# Method in brief: as §1
# [17] = compound: CC(C)C[C@@H](C=O)NC(=O)[C@H](CC(C)C)NC(=O)[C@H](CC(C)C)NC(=O)OCc1ccccc1
# Method in brief: as §1
# [18] = compound: CC(C)N(C[C@H]1O[C@@H](n2cnc3c(N)ncnc32)[C@H](O)[C@@H]1O)[C@H]1C[C@@H](CCc2nc3cc(C(C)(C)C)ccc3[nH]2)C1 [pinometostat]
# Method in brief: as §1
# [19] = compound: CC1=C(C2=C(C=C1)C(=O)C3=CC=CC=C3N2CCCN)C
# Method in brief: as §1
# [20] = compound: CC1=C(C(CC(=O)N1)C2=CC=C(C=C2)C(F)(F)F)C(=O)NC3=C(C=C4C(=C3)C=NN4)F
# Method in brief: as §1
Target,log2 fold change [1],log2 fold change [2],log2 fold change [3],log2 fold change [4],log2 fold change [5],log2 fold change [6],log2 fold change [7],log2 fold change [8],log2 fold change [9],log2 fold change [10],log2 fold change [11],log2 fold change [12],log2 fold change [13],log2 fold change [14],log2 fold change [15],log2 fold change [16],log2 fold change [17],log2 fold change [18],log2 fold change [19],log2 fold change [20]
USP14 (UniProt P54578),inactive: -0.027,inactive: 0.03,inactive: 0.084,inactive: -0.014,inactive: -0.04,inactive: 0,inactive: 0.02,inactive: 0.015,inactive: -0.016,inactive: -0.001,inactive: -0.013,inactive: -0.045,inactive: -0.004,inactive: 0.021,inactive: -0.028,inactive: -0.068,inactive: 0.044,inactive: -0.031,inactive: 0.014,–
USP22 (UniProt Q9UPT9),inactive: 0.009,inactive: 0.101,inactive: 0.045,inactive: 0.046,inactive: 0.002,inactive: 0.15,–,inactive: -0.014,inactive: -0.059,inactive: 0.043,inactive: -0.038,inactive: -0.111,inactive: -0.184,–,inactive: -0.176,inactive: -0.06,–,inactive: 0.029,inactive: 0.046,inactive: -0.024
USP13 (UniProt Q92995),inactive: 0.04,inactive: 0.13,–,inactive: -0.013,inactive: -0.166,inactive: -0.037,inactive: 0.158,inactive: 0.062,inactive: 0.029,inactive: 0.074,inactive: 0.031,inactive: -0.054,inactive: 0.11,inactive: 0.066,–,inactive: -0.013,inactive: -0.122,inactive: -0.113,inactive: -0.069,inactive: -0.056
UHRF1BP1 (UniProt Q6BDS2),inactive: -0.018,inactive: -0.01,inactive: 0.011,inactive: 0.033,inactive: 0.001,inactive: 0.008,inactive: -0.017,inactive: -0.009,inactive: -0.013,inactive: 0.008,inactive: 0.007,inactive: 0.023,inactive: -0.034,inactive: -0.067,inactive: 0.097,active: 0.258,inactive: 0.03,inactive: 0.006,inactive: 0.029,–
USP20 (UniProt Q9Y2K6),inactive: 0.024,inactive: 0.035,inactive: 0.012,inactive: 0.032,inactive: -0.016,inactive: -0.055,inactive: -0.056,inactive: 0.03,–,–,inactive: -0.07,inactive: -0.064,inactive: -0.055,inactive: 0.149,inactive: 0.078,inactive: 0.032,inactive: 0.244,inactive: 0.062,–,inactive: -0.126
UCHL5 (UniProt Q9Y5K5),inactive: -0.018,inactive: 0.094,inactive: 0.005,inactive: -0.024,inactive: 0.036,inactive: 0.008,inactive: 0.02,inactive: 0.03,inactive: -0.001,inactive: -0.01,inactive: -0.041,inactive: -0.051,inactive: -0.012,inactive: 0.03,inactive: -0.028,inactive: -0.161,inactive: 0.054,inactive: -0.004,inactive: -0.018,–
USF1 (UniProt P22415),inactive: 0.161,inactive: 0.087,inactive: -0.151,inactive: 0.166,inactive: 0.219,inactive: -0.076,inactive: 0.103,inactive: 0.053,–,–,inactive: 0.007,inactive: -0.001,inactive: -0.065,inactive: 0.064,inactive: 0.112,inactive: -0.073,inactive: 0.044,inactive: 0.022,–,inactive: 0.087
UGCG (UniProt Q16739),inactive: -0.034,inactive: -0.107,inactive: -0.105,inactive: 0.004,inactive: 0.014,inactive: 0.137,inactive: 0.107,inactive: 0.006,inactive: -0.456,inactive: -0.103,inactive: -0.071,inactive: 0,inactive: -0.115,inactive: -0.068,inactive: 0.02,inactive: 0.046,inactive: 0.199,inactive: -0.023,inactive: 0.025,–
UBQLN3 (UniProt Q9H347),inactive: -0.116,inactive: -0.021,inactive: -0.079,inactive: 0.034,inactive: 0.159,–,inactive: 0.053,inactive: -0.075,inactive: 0.074,inactive: -0.039,inactive: 0.064,–,inactive: -0.064,inactive: -0.059,inactive: -0.047,inactive: 0.148,inactive: -0.09,inactive: -0.082,inactive: 0.116,inactive: -0.104
UFD1 isoform 1 (UniProt Q92890),inactive: 0.001,inactive: 0.019,inactive: 0.051,inactive: -0.008,inactive: 0.012,inactive: 0.015,inactive: -0.01,inactive: -0.021,inactive: -0.036,inactive: 0.024,inactive: 0.025,inactive: -0.018,inactive: -0.005,inactive: 0,inactive: -0.04,inactive: 0.04,inactive: 0.021,inactive: -0.04,inactive: 0,–
UBTF (UniProt P17480),inactive: 0.195,inactive: -0.071,–,inactive: 0.067,inactive: 0.018,inactive: 0.128,inactive: 0.06,inactive: 0.08,–,–,inactive: -0.132,inactive: -0.016,inactive: -0.239,inactive: 0.113,–,inactive: -0.071,inactive: 0.259,inactive: 0.071,–,–

# Quoted at random: 2 records from the list, in no set order.
Target,log2 fold change [1],log2 fold change [2],log2 fold change [3],log2 fold change [4],log2 fold change [5],log2 fold change [6],log2 fold change [7],log2 fold change [8],log2 fold change [9],log2 fold change [10],log2 fold change [11],log2 fold change [12],log2 fold change [13],log2 fold change [14],log2 fold change [15],log2 fold change [16],log2 fold change [17],log2 fold change [18],log2 fold change [19],log2 fold change [20]
USP13 (UniProt Q92995),inactive: 0.04,inactive: 0.13,–,inactive: -0.013,inactive: -0.166,inactive: -0.037,inactive: 0.158,inactive: 0.062,inactive: 0.029,inactive: 0.074,inactive: 0.031,inactive: -0.054,inactive: 0.11,inactive: 0.066,–,inactive: -0.013,inactive: -0.122,inactive: -0.113,inactive: -0.069,inactive: -0.056
UBQLN3 (UniProt Q9H347),inactive: -0.116,inactive: -0.021,inactive: -0.079,inactive: 0.034,inactive: 0.159,–,inactive: 0.053,inactive: -0.075,inactive: 0.074,inactive: -0.039,inactive: 0.064,–,inactive: -0.064,inactive: -0.059,inactive: -0.047,inactive: 0.148,inactive: -0.09,inactive: -0.082,inactive: 0.116,inactive: -0.104

# Reference: the supplement of paper PMC10849652
